{
  "source": "paper doi:10.1101/2023.01.01.522328",
  "target": "SARS-CoV-2 non-structural protein 2 (Flag-NSP2) (SARS-CoV-2) (UniProt P0DTD1)",
  "assay": "co-IP",
  "note": "Results are given in words; binding and its absence hold for the method and conditions named. In cells and extracts the contact can be indirect. Some results given as binding are weak or reduced against the parent protein; the word gives no strength.",
  "data": [
    {"substance": "Argonaute 2 (AGO2) (from UniProt Q9UKV8 1-859)", "values": [
      {"measurement": "binding", "value": "binds"}
    ]}
  ]
}
